Source: US20040002124A1
Results are given in words; binding and its absence hold for the method and conditions named. Binding calls can cover weak binding; strength is not graded here.

Molecular target: activated αllbβ3 purified from human platelets by RGD affinity chromatography (human)
Experiment: RGD affinity chromatography of platelet octylglucoside extract

binding: binds
B1: GRGDSPK-coupled Sepharose 4B (peptide)
peptide: GRGDSPK
modifications: coupled to Sepharose 4B
